Assay results: US11427783B2, “Perfuming compositions” (Firmenich SA, priority 2016, dated 2022)

Assay: Volatility of perfuming compounds in air
Type: physicochemical
Conditions: Table 10, perfuming compounds having a woody note

Compound: CC(C)CC(=O)O [3-METHYLBUTANOIC ACID]
- Volatility (μg/l air): 1530.76 μg/l air
